Assay results from the supplement of paper PMC10849652.
The list shows a part of the results.

Amino acid sequences for entries named in this document (tags omitted). A change or cut given only in a name is not applied to a line headed by its entry.
UniProt P62258: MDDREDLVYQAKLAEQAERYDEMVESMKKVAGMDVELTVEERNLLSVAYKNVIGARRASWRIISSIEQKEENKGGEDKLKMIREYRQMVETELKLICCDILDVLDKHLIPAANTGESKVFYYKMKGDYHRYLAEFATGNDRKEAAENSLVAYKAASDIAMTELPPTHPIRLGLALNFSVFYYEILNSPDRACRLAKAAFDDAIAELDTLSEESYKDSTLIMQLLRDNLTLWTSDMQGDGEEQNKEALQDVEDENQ
UniProt O43542: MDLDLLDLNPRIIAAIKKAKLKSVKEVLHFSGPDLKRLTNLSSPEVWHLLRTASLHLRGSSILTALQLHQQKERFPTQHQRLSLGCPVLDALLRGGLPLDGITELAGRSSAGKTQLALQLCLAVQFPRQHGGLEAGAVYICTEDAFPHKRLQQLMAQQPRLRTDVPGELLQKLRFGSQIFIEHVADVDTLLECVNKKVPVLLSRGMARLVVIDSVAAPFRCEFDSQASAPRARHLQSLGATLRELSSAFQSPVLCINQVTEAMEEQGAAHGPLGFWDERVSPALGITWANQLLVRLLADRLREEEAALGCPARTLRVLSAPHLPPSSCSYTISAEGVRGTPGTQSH
UniProt Q8IY57: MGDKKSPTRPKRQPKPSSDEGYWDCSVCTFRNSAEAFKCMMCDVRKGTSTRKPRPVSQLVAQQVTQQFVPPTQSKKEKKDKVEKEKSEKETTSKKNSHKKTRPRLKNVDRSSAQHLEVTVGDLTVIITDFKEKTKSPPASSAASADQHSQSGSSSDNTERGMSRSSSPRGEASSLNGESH
UniProt Q5T4F4: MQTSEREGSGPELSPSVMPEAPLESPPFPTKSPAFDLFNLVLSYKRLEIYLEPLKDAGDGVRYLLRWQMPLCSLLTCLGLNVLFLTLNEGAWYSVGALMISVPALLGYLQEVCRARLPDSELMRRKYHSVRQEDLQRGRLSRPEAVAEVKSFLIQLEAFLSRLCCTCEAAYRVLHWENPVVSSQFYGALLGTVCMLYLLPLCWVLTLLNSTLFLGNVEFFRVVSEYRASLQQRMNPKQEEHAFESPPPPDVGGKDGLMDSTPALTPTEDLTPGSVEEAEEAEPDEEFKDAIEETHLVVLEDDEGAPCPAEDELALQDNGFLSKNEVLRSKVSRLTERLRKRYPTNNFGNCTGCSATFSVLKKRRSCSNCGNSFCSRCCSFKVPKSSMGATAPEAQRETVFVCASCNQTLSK
UniProt Q9UBH6: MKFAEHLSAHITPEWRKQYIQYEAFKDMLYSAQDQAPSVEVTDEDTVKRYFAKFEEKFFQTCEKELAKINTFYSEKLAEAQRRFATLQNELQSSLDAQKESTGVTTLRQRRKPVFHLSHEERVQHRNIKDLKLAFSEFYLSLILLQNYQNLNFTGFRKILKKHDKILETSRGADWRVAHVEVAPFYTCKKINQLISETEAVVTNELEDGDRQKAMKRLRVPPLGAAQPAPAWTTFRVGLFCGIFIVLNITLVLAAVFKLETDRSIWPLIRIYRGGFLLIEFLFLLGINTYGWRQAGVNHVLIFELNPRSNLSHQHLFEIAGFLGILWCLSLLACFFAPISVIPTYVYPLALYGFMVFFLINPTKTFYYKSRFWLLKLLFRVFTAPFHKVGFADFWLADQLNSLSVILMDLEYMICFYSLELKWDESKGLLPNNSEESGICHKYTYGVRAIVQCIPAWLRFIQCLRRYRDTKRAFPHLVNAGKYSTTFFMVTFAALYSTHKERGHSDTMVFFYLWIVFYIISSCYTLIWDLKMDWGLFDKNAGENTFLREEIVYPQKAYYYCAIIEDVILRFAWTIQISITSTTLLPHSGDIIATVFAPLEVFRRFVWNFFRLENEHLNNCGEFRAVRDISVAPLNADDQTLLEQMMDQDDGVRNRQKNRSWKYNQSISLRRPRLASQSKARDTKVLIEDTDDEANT
UniProt P61981: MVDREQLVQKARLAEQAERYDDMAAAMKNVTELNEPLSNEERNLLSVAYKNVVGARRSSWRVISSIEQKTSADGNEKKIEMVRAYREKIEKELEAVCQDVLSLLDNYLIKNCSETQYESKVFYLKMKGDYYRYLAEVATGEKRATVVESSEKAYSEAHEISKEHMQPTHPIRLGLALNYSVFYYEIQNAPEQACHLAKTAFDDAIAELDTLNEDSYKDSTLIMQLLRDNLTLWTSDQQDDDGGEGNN
UniProt Q8NF64: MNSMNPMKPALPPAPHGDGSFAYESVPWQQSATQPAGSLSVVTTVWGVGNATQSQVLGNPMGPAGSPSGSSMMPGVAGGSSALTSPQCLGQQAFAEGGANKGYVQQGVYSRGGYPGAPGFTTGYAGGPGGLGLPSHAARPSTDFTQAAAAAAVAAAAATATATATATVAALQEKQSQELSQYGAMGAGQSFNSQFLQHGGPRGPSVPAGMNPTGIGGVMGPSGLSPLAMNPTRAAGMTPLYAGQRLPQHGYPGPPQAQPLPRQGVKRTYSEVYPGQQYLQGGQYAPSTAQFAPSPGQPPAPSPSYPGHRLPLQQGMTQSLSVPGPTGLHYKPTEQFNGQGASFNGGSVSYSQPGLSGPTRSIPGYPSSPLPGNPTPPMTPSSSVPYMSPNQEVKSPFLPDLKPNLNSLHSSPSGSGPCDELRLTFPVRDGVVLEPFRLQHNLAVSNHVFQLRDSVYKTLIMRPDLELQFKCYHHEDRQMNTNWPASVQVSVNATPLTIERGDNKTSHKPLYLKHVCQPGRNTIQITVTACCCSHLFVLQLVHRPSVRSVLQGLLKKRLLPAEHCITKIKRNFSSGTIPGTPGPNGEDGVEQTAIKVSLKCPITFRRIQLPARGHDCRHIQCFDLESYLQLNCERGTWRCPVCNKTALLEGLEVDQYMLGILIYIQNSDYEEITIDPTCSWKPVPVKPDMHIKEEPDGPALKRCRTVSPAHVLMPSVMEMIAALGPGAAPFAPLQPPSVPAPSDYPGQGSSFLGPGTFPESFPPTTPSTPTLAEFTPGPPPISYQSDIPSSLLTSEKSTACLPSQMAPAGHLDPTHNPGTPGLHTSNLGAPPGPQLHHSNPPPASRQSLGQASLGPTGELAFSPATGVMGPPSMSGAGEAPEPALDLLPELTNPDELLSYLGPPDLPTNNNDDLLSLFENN
UniProt Q9NUD5: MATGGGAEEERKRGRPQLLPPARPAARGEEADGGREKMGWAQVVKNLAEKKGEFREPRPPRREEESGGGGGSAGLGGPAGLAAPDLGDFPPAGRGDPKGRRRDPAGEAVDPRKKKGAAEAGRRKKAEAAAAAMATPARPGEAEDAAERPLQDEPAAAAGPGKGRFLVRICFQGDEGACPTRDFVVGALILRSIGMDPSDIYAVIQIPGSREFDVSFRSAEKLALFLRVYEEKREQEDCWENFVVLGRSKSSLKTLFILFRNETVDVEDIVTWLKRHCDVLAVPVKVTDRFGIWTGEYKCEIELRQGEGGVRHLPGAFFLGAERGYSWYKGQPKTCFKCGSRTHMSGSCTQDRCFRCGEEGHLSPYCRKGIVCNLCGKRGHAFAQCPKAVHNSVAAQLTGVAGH
UniProt Q9H0D6: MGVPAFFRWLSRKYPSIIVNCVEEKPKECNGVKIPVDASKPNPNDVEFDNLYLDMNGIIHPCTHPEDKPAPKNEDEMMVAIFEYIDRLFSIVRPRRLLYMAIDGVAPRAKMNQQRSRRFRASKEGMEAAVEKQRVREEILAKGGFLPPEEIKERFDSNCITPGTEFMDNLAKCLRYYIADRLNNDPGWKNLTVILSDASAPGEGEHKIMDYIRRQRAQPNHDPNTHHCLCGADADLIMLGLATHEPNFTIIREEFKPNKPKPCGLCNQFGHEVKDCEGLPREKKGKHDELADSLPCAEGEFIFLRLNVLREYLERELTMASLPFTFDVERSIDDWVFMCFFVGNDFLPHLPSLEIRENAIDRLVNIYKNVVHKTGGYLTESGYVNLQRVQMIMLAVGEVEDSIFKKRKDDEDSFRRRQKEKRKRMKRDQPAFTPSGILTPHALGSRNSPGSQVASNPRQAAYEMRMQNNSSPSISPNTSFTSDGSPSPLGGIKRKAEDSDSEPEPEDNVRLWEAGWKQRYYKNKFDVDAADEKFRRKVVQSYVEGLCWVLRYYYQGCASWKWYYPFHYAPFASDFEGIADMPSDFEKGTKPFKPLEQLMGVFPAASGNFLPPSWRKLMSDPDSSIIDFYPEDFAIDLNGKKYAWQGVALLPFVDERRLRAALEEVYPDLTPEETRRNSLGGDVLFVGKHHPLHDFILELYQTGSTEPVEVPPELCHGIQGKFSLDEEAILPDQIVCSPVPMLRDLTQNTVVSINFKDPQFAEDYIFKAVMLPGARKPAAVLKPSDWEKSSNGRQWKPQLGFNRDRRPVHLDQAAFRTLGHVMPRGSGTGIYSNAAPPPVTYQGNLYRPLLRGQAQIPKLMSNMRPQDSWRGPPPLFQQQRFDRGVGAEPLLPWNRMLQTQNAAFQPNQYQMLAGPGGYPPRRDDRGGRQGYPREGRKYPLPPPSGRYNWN
UniProt P16989, whole entry, looked up: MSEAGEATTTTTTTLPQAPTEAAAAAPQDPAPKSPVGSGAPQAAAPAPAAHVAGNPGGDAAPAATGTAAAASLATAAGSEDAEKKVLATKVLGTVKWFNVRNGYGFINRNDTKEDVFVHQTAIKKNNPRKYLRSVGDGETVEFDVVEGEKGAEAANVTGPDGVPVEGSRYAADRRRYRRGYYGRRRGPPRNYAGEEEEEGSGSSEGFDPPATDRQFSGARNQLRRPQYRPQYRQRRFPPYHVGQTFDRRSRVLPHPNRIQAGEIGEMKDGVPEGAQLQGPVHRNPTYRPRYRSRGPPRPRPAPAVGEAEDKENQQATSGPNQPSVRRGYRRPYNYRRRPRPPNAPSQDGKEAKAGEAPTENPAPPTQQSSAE
UniProt Q7Z739: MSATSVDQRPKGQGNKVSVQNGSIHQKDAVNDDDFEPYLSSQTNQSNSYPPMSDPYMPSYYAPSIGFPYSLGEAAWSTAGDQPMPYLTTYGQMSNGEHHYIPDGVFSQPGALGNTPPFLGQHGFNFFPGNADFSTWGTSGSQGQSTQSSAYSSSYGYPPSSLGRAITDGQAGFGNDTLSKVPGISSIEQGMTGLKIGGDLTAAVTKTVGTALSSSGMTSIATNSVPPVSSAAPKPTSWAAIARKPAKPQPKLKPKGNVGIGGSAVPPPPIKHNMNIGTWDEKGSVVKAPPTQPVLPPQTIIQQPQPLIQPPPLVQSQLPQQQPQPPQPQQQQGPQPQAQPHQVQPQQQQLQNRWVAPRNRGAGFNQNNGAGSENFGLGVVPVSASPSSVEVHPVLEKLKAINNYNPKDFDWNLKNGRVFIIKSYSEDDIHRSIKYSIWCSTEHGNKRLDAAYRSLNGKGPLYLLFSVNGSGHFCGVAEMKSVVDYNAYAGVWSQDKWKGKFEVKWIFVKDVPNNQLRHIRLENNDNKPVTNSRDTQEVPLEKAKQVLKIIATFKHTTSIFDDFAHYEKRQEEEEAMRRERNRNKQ
UniProt Q8WV99: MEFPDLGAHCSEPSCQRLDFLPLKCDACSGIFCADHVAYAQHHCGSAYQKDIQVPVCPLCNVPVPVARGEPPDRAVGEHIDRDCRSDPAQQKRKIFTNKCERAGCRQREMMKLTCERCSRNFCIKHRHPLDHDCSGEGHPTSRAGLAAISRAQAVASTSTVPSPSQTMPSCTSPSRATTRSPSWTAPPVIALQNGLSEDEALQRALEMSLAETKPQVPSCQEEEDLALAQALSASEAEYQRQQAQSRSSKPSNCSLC
UniProt A8MPS7: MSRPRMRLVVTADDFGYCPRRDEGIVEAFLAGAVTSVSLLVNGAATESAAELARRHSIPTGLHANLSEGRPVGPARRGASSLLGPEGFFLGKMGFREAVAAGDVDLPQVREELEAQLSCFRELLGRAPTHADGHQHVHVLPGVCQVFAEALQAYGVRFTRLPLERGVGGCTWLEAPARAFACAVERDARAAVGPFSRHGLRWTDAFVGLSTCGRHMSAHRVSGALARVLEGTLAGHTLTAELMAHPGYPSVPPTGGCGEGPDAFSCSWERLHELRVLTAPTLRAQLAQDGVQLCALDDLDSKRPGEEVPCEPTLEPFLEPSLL
UniProt Q86U90: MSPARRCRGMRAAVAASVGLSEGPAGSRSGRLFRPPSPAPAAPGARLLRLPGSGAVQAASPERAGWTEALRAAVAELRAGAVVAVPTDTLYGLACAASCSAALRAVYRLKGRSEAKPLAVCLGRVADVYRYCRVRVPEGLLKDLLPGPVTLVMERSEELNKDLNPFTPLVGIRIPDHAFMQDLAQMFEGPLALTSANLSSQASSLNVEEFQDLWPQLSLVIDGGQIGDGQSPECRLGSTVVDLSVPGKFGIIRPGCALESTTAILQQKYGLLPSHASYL

What was measured:
Test in all cases: log2 fold change, soluble protein after heating vs DMSO (PISA); higher = thermal stabilisation; K562 cells, 10 uM, 30 min; active = over 0.2 and 3.5 SD of the protein, either way, in both replicates (recomputed)
[1] = compound: CC1=C(C=C(C=C1)NC(=O)C2=CC(=CC=C2)C(C)(C)C#N)NC3=CC4=C(C=C3)N=CN(C4=O)C
Method in brief: (§1)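 K562 cells at 2×10^6 cells/mL were treated for 30 min with 10 μM compound, and aliquots were heated for 3 min over 48°C-58°C before pooling. Extraction used PBS with 0.5% NP-40 at 4°C, and soluble protein was the supernatant after 21,000xg for 90 min, measured by TMTpro 16plex LC-MS/MS with channel sums equalised. Thermal stability values, relative to control samples and from duplicates, are log2 fold changes.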

[2] = compound: CC1=C(C=C(C=C1)NC(=O)C2=CC(=CC=C2)N(C)C)NC(=O)C3=CC=C(C=C3)O
Method in brief: as §1

[3] = compound: CC1=CC=C(C=C1)SC2=C3C=C(SC3=CN=C2)C(=O)N
Method in brief: as §1

[4] = compound: CC1=NC(=CC=C1)C2=C(N=C(N2)C(C)(C)C)C3=CC4=NC=CN=C4C=C3
Method in brief: as §1

Nexturastat A = compound: CCCCN(Cc1ccc(C(=O)NO)cc1)C(=O)Nc1ccccc1 [Nexturastat A]
Method in brief: as §1

vemurafenib = compound: CCCS(=O)(=O)Nc1ccc(F)c(C(=O)c2c[nH]c3ncc(-c4ccc(Cl)cc4)cc23)c1F [vemurafenib]
Method in brief: as §1

[5] = compound: CCCS(=O)(=O)Nc1ccc(F)c(C(=O)c2c[nH]c3ncc(Cl)cc23)c1F
Method in brief: as §1

[6] = compound: CCCc1cc(C)[nH]c(=O)c1CNC(=O)c1cc(-c2ccnc(N3CCN(C)CC3)c2)cc2c1cnn2C(C)C
Method in brief: as §1

givinostat = compound: CCN(CC)Cc1ccc2cc(COC(=O)Nc3ccc(C(=O)NO)cc3)ccc2c1 [givinostat]
Method in brief: as §1

barasertib = compound: CCN(CCCOc1ccc2c(Nc3cc(CC(=O)Nc4cccc(F)c4)[nH]n3)ncnc2c1)CCOP(=O)(O)O [barasertib]
Method in brief: as §1

[7] = compound: CC[C@@H]1C(=O)N(C)c2cnc(Nc3ccc(C(=O)NC4CCN(C)CC4)cc3OC)nc2N1C1CCCC1
Method in brief: as §1

volasertib = compound: CC[C@@H]1C(=O)N(C)c2cnc(Nc3ccc(C(=O)N[C@H]4CC[C@H](N5CCN(CC6CC6)CC5)CC4)cc3OC)nc2N1C(C)C [volasertib]
Method in brief: as §1

[8] = compound: CC[C@H](C)N1C=C(C2=C(C=C(C=C21)C3=CN=C(C=C3)N4CCNCC4)C(=O)NCC5=C(C=C(NC5=O)C)C)C
Method in brief: as §1

epoxomicin = compound: CC[C@H](C)[C@@H](C(=O)N[C@@H]([C@@H](C)O)C(=O)N[C@@H](CC(C)C)C(=O)[C@]1(CO1)C)NC(=O)[C@H]([C@@H](C)CC)N(C)C(=O)C [epoxomicin]
Method in brief: as §1

[9] = compound: CCn1c(C(=O)N(C2CC2)C2CC2)cc2c3c(ncn3C)c(Nc3cc(C)n(C)n3)nc21
Method in brief: as §1

[10] = compound: CCn1cc(-c2ccnc3[nH]c(-c4cccc(CN(C)C)c4)cc23)c(-c2ccc(NC(=O)N(C)C)cc2)n1
Method in brief: as §1

[11] = compound: CN(C)CC(=O)Nc1ccc2[nH]c(=O)c3ccccc3c2c1
Method in brief: as §1

rosiglitazone = compound: CN(CCOC1=CC=C(C=C1)C[C@H]2C(=O)NC(=O)S2)C3=CC=CC=N3 (racemic) [rosiglitazone]
Method in brief: as §1

[12] = compound: CN1C2=C(C3=C1C(=O)N(N=C3)CC4=CC(=CC=C4)N)SC(=C2)S(=O)C
Method in brief: as §1

[13] = compound: CN1CCC(CNc2ccc3ncc(-c4cccc(OC(F)(F)F)c4)n3n2)CC1
Method in brief: as §1

Measured: log2 fold change

YWHAE (UniProt P62258)
inactive: [1] 0.009 | [2] 0.026 | [3] -0.015 | [4] 0.016 | Nexturastat A -0.055 | vemurafenib 0.002 | [5] -0.029 | [6] -0.04 | givinostat -0.02 | barasertib 0.003 | [7] 0.023 | volasertib 0.037 | [8] -0.027 | epoxomicin 0.018 | [9] 0.02 | [10] -0.011 | [11] -0.019 | rosiglitazone -0.008 | [12] -0.033 | [13] -0.043

XRCC3 (UniProt O43542)
inactive: [1] -0.01 | [2] -0.032 | [3] -0.014 | [4] 0.074 | Nexturastat A -0.107 | vemurafenib 0.051 | [5] -0.094 | [6] -0.108 | givinostat -0.005 | barasertib -0.051 | [7] -0.04 | volasertib -0.021 | [8] 0.025 | epoxomicin -0.041 | [9] 0.032 | [10] -0.028 | [11] 0.064 | rosiglitazone 0.024 | [12] -0.069 | [13] -0.02

YAF2 isoform 5 (UniProt Q8IY57)
inactive: [1] 0.089 | [2] 0.065 | [3] -0.02 | [4] -0.102 | Nexturastat A 0.109 | vemurafenib -0.13 | [5] 0.007 | [6] 0.188 | givinostat 0 | barasertib -0.147 | [7] 0.071 | volasertib 0.012 | [8] 0.123 | epoxomicin 0.084 | [9] -0.077 | [10] 0 | [11] -0.211 | rosiglitazone -0.091 | [12] -0.133 | [13] 0.125

ZFYVE27 isoform 2 (UniProt Q5T4F4)
inactive: [1] 0.006 | [2] -0.009 | [3] -0.015 | [4] -0.012 | Nexturastat A 0.054 | vemurafenib -0.075 | [5] 0.016 | [6] -0.004 | givinostat -0.047 | barasertib 0.006 | [7] -0.018 | volasertib -0.084 | [8] -0.016 | epoxomicin 0.028 | [9] -0.014 | [10] -0.034 | [11] -0.077 | rosiglitazone 0.012 | [12] -0.081 | [13] 0.043

Two neighbouring records from above, quoted:
XRCC3 (UniProt O43542)
inactive: [1] -0.01 | [2] -0.032 | [3] -0.014 | [4] 0.074 | Nexturastat A -0.107 | vemurafenib 0.051 | [5] -0.094 | [6] -0.108 | givinostat -0.005 | barasertib -0.051 | [7] -0.04 | volasertib -0.021 | [8] 0.025 | epoxomicin -0.041 | [9] 0.032 | [10] -0.028 | [11] 0.064 | rosiglitazone 0.024 | [12] -0.069 | [13] -0.02

YAF2 isoform 5 (UniProt Q8IY57)
inactive: [1] 0.089 | [2] 0.065 | [3] -0.02 | [4] -0.102 | Nexturastat A 0.109 | vemurafenib -0.13 | [5] 0.007 | [6] 0.188 | givinostat 0 | barasertib -0.147 | [7] 0.071 | volasertib 0.012 | [8] 0.123 | epoxomicin 0.084 | [9] -0.077 | [10] 0 | [11] -0.211 | rosiglitazone -0.091 | [12] -0.133 | [13] 0.125

Going on with the list:

XPR1 (UniProt Q9UBH6)
inactive: [1] 0.034 | [2] -0.011 | [3] -0.009 | [4] 0.015 | Nexturastat A -0.048 | vemurafenib -0.03 | [5] -0.006 | [6] -0.013 | givinostat -0.027 | barasertib -0.023 | [7] 0.013 | volasertib -0.025 | [8] 0.005 | epoxomicin 0.022 | [9] 0.046 | [10] -0.028 | [11] 0 | rosiglitazone -0.004 | [12] -0.009 | [13] 0.053

YWHAG (UniProt P61981)
inactive: [1] -0.014 | [2] -0.026 | [3] -0.056 | [4] 0.011 | Nexturastat A -0.028 | vemurafenib 0.058 | [5] -0.071 | [6] 0.093 | givinostat -0.025 | barasertib 0.004 | [7] -0.109 | volasertib 0.042 | [8] 0.028 | epoxomicin 0.08 | [9] 0.019 | [10] -0.015 | [11] 0.011 | rosiglitazone -0.027 | [12] -0.078 | [13] 0.013

ZMIZ2 (UniProt Q8NF64)
inactive: [1] 0.022 | [2] -0.068 | [3] -0.031 | [4] -0.066 | Nexturastat A -0.127 | vemurafenib -0.037 | [5] -0.02 | [6] -0.054 | givinostat 0.07 | barasertib 0.026 | [7] 0.029 | volasertib -0.001 | [8] -0.295 | epoxomicin 0.047 | [9] -0.03 | [10] 0.006 | [11] 0.018 | rosiglitazone -0.013 | [12] -0.03 | [13] -0.158

ZCCHC3 (UniProt Q9NUD5)
inactive: [1] -0.006 | [2] 0.101 | [3] -0.135 | [4] -0.054 | Nexturastat A 0.168 | vemurafenib -0.136 | [5] -0.076 | [6] 0.041 | givinostat -0.052 | barasertib -0.053 | [7] 0.23 | volasertib 0.252 | [8] 0.093 | epoxomicin -0.202 | [9] 0.036 | [10] 0.118 | [11] -0.12 | rosiglitazone -0.077 | [12] 0.183 | [13] 0.192

XRN2 (UniProt Q9H0D6)
inactive: [1] -0.017 | [2] -0.022 | [3] -0.051 | [4] 0.003 | Nexturastat A 0.092 | vemurafenib 0 | [5] -0.022 | [6] -0.019 | givinostat 0.05 | barasertib -0.037 | [7] 0.063 | volasertib 0.132 | [8] -0.022 | epoxomicin -0.037 | [9] -0.032 | [10] 0.071 | [11] -0.028 | rosiglitazone -0.017 | [12] 0.052 | [13] 0.047

YBX3 (UniProt P16989)
inactive: [1] -0.026 | [2] 0.017 | [3] -0.105 | [4] -0.119 | Nexturastat A 0.348 | vemurafenib -0.034 | [5] -0.099 | [6] 0.089 | givinostat -0.053 | barasertib -0.166 | [7] 0.252 | volasertib 0.38 | [8] -0.016 | epoxomicin -0.194 | [9] 0.046 | [10] 0.194 | [11] -0.085 | rosiglitazone -0.154 | [12] 0.165 | [13] 0.301

YTHDF3 (UniProt Q7Z739)
inactive: [1] 0.032 | [2] 0.017 | [3] -0.046 | [4] 0.015 | Nexturastat A 0.029 | vemurafenib 0.007 | [5] -0.004 | [6] -0.015 | givinostat -0.002 | barasertib -0.025 | [7] 0.074 | volasertib -0.027 | [8] 0.03 | epoxomicin -0.031 | [9] 0.015 | [10] 0.005 | [11] 0.015 | rosiglitazone -0.012 | [12] -0.009 | [13] 0

ZFAND2B (UniProt Q8WV99)
inactive: [1] -0.053 | [2] 0.01 | [3] 0.038 | [4] -0.004 | Nexturastat A 0.049 | vemurafenib 0.022 | [5] 0.041 | [6] -0.038 | givinostat -0.012 | barasertib -0.076 | [7] 0.066 | volasertib 0.067 | [8] 0.013 | epoxomicin -0.131 | [9] -0.045 | [10] 0.244 | [11] -0.089 | rosiglitazone 0.009 | [12] -0.018 | [13] -0.024

YTHDF2 (UniProt Q9Y5A9)
inactive: [1] -0.012 | [2] 0.008 | [3] -0.031 | [4] 0.003 | Nexturastat A 0.056 | vemurafenib 0.066 | [5] 0.018 | [6] -0.033 | givinostat 0.026 | barasertib -0.058 | [7] -0.047 | volasertib -0.069 | [8] 0.07 | epoxomicin 0.009 | [9] 0.009 | [10] -0.04 | [11] -0.012 | rosiglitazone 0.006 | [12] 0.025 | [13] -0.133

YDJC (UniProt A8MPS7)
inactive: [1] -0.002 | [2] -0.069 | [3] -0.016 | [4] 0.013 | Nexturastat A 0.058 | vemurafenib -0.005 | [5] 0 | [6] -0.029 | givinostat 0.003 | barasertib -0.011 | [7] 0.033 | volasertib 0.168 | [8] -0.014 | epoxomicin 0.098 | [9] -0.176 | [10] -0.088 | [11] 0 | rosiglitazone 0.053 | [12] -0.063 | [13] -0.18

YRDC (UniProt Q86U90)
inactive: [1] -0.015 | [2] -0.033 | [3] 0.006 | [4] 0.031 | Nexturastat A -0.005 | vemurafenib -0.009 | [5] 0.002 | [6] -0.015 | givinostat 0.053 | barasertib -0.027 | [7] -0.01 | volasertib -0.041 | [8] 0.004 | epoxomicin -0.057 | [9] 0.005 | [10] -0.011 | [11] 0.008 | rosiglitazone 0.029 | [12] -0.044 | [13] -0.121

ZMIZ1 (UniProt Q9ULJ6)
inactive: [1] -0.066 | [2] -0.062 | [3] -0.008 | [4] -0.011 | Nexturastat A -0.011 | vemurafenib 0.003 | [5] 0.018 | [6] -0.014 | givinostat 0.002 | barasertib 0.016 | [7] -0.022 | volasertib -0.094 | [8] -0.014 | epoxomicin 0.065 | [9] -0.039 | [10] -0.054 | [11] 0.027 | rosiglitazone -0.008 | [12] -0.035 | [13] 0.028
